# According to the supplement of paper PMC10849652:
# Sequences of proteins named here, by UniProt entry; tags and fusion partners are left off. A change or cut given only in a name is not applied to a line headed by its entry.
# UniProt P54278: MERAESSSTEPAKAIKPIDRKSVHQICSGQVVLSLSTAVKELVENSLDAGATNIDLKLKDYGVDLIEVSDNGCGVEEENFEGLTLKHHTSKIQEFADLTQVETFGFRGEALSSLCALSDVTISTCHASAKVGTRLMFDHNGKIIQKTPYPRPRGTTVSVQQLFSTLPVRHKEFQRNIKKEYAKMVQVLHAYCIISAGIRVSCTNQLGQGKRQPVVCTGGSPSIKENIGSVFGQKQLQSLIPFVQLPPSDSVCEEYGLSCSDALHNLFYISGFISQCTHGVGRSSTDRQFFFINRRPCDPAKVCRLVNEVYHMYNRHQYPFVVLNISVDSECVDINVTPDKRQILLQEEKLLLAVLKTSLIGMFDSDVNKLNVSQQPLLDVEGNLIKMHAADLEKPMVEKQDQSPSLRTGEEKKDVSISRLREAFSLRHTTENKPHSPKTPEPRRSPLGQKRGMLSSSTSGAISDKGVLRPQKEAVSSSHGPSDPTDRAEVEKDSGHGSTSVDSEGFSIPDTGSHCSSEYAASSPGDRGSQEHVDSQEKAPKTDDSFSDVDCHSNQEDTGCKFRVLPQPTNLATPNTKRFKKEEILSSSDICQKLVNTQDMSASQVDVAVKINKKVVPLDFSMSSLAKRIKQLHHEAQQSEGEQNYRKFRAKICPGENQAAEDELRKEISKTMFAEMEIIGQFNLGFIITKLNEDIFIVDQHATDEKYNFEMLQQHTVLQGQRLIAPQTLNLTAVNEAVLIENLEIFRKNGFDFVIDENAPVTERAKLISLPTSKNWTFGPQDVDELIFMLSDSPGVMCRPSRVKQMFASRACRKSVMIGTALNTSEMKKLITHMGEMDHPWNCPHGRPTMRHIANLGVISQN
# UniProt Q13794: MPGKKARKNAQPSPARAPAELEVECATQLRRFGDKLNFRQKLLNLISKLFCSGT
# UniProt Q8WUA2: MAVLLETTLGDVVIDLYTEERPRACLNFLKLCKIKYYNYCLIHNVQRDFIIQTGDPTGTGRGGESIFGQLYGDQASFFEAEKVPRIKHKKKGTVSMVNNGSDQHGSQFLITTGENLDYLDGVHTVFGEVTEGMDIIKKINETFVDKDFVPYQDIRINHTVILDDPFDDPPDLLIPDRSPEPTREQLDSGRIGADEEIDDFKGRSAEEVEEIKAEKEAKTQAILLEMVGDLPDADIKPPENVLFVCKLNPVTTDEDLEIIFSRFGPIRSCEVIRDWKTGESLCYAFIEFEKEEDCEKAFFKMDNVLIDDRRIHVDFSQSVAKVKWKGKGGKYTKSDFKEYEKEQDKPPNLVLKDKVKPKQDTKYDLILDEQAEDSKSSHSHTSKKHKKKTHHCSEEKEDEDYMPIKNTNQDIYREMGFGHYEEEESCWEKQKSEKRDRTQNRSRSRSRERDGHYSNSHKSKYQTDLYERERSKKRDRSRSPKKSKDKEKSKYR
# UniProt P29590: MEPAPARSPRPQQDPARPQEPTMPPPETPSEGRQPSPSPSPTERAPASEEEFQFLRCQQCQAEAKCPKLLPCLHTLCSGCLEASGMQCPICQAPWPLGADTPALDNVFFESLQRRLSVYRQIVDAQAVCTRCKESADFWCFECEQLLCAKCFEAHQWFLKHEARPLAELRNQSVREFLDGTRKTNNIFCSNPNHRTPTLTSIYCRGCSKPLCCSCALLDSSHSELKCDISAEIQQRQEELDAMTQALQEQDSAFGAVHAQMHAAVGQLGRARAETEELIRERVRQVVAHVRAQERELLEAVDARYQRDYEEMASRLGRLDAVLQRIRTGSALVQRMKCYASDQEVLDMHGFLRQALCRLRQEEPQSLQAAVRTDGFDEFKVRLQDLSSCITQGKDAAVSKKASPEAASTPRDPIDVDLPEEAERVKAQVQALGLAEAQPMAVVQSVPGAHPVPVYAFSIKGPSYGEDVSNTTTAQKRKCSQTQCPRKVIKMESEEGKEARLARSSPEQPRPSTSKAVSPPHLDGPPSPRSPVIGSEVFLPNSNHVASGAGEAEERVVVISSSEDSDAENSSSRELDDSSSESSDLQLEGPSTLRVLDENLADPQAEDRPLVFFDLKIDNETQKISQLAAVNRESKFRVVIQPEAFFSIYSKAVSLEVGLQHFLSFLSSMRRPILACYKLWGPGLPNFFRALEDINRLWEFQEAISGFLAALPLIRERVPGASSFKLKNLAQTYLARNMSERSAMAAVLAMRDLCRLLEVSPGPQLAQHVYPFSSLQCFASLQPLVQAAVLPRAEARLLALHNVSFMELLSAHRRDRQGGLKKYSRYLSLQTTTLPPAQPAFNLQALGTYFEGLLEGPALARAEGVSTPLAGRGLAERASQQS
# UniProt P00747, whole entry, looked up: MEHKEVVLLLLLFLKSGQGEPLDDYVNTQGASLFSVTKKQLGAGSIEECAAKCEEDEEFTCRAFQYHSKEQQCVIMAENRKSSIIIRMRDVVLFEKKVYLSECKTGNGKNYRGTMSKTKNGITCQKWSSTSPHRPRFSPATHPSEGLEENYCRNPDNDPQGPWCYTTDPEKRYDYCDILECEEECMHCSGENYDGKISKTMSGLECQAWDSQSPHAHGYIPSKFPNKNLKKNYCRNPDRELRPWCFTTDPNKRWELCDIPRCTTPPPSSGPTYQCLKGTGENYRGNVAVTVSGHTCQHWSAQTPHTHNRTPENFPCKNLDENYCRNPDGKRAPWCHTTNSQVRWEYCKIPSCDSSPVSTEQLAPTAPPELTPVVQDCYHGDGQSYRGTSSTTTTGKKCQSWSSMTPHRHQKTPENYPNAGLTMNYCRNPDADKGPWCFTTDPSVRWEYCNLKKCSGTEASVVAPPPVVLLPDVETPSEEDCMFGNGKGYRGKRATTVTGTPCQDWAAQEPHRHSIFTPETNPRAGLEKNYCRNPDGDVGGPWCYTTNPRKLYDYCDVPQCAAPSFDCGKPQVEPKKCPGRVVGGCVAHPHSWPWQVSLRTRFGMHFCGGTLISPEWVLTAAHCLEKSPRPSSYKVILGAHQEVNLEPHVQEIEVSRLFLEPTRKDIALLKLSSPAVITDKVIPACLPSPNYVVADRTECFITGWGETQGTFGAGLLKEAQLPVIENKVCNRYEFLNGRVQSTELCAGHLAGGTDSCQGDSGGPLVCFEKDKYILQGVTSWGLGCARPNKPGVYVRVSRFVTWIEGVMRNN
# UniProt Q8NBT0: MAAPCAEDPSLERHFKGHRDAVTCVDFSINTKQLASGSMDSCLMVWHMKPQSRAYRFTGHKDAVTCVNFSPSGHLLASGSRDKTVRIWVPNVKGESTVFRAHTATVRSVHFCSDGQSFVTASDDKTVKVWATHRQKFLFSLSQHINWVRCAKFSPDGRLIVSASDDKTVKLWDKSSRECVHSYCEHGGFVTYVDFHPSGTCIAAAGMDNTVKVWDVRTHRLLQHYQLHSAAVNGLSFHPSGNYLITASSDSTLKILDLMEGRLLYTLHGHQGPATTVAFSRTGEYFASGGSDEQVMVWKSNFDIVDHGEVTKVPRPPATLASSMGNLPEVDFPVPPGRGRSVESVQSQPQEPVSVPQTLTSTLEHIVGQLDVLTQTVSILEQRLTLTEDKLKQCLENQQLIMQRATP
# UniProt Q6T4P5: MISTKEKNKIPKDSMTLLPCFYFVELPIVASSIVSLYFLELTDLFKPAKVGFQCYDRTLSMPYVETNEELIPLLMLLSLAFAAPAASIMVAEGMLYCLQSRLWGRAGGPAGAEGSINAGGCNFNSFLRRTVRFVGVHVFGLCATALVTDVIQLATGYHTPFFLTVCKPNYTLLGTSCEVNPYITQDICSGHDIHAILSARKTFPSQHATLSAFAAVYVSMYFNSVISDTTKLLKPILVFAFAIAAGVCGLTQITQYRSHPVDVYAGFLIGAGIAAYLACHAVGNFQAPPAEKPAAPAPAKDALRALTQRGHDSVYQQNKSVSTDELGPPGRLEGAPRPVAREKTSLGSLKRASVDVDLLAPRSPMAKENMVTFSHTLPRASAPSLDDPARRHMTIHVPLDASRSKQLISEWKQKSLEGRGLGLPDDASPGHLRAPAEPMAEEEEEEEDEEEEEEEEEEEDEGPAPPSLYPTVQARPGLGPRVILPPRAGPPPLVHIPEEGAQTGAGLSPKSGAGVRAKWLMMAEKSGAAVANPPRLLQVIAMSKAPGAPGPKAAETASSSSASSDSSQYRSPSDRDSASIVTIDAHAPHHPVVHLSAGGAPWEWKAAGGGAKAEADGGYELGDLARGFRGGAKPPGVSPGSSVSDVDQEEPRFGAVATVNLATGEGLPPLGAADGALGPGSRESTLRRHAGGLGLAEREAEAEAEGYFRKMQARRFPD
# UniProt Q07864, whole entry, looked up: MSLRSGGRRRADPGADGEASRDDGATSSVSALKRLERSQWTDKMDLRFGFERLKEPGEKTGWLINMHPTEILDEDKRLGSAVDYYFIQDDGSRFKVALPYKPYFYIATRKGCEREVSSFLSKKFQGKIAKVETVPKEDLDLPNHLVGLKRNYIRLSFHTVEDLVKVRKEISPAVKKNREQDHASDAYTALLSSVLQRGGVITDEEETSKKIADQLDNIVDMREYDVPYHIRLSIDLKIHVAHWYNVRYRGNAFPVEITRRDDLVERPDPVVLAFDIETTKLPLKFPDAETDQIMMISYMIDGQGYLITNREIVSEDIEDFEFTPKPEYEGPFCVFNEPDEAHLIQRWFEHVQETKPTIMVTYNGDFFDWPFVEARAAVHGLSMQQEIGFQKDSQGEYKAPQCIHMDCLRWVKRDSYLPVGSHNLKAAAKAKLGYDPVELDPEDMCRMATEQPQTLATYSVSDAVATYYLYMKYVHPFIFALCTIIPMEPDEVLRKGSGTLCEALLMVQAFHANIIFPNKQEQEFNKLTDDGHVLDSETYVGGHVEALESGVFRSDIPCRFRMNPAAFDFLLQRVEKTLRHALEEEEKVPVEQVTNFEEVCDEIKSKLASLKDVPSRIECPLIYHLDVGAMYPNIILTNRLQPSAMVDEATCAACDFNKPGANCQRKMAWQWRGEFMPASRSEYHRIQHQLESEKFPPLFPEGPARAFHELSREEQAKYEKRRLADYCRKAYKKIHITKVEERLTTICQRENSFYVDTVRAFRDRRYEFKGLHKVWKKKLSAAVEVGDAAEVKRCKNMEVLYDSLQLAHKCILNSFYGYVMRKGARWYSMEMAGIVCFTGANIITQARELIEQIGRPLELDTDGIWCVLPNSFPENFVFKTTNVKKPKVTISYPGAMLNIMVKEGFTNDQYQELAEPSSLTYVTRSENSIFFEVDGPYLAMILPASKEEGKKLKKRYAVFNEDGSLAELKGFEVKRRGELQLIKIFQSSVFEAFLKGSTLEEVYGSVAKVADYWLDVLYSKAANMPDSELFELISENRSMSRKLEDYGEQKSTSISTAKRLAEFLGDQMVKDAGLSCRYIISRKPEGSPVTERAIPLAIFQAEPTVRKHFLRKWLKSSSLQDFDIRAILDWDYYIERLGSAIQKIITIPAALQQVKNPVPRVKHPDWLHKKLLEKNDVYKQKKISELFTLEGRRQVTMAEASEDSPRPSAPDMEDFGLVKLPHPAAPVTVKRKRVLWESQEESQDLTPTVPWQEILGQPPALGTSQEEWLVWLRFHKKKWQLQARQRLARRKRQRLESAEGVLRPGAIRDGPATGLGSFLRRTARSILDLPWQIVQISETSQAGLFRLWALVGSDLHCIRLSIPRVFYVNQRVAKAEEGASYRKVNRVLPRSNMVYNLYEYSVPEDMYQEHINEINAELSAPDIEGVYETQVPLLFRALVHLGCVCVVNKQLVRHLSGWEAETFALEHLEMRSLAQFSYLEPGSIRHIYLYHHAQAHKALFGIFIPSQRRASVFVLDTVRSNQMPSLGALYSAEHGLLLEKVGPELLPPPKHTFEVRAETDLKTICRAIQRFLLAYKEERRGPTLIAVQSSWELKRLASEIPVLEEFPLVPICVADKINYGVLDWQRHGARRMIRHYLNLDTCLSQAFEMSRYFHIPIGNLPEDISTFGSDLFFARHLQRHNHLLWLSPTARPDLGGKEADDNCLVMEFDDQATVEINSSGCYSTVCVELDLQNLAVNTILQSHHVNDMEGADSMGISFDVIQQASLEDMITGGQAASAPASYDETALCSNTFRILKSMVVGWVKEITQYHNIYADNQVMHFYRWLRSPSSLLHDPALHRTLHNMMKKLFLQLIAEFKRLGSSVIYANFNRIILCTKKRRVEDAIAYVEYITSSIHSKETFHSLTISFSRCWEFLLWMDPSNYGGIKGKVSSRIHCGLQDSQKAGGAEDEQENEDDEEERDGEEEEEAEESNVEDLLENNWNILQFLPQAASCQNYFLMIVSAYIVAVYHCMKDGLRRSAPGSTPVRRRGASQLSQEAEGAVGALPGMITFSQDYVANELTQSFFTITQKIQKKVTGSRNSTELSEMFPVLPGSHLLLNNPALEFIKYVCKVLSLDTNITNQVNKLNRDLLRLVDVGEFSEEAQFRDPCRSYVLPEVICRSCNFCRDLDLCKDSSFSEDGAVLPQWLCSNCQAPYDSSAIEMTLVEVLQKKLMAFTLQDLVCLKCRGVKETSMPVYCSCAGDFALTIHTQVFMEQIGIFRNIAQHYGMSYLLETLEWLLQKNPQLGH
# Some of the results follow. Residues, ends and D or L forms follow the SMILES beside them. *: point of attachment. Cbz = O=C(OCc1ccccc1)*
# Experiments:
# Assay in all cases: log2 fold change, soluble protein after heating vs DMSO (PISA); higher = thermal stabilisation; K562 cells, 10 uM, 30 min; active = over 0.2 and 3.5 SD of the protein, either way, in both replicates (recomputed)
# erlotinib = compound: C#Cc1cccc(Nc2ncnc3cc(OCCOC)c(OCCOC)cc23)c1 [erlotinib]
# Procedure, shortened: (§1)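 Soluble protein was defined as the supernatant after 21,000xg for 90 min. It came from K562 cells at 2×10^6 cells/mL given 10 μM compound for 30 min, heated in aliquots for 3 min across 48°C-58°C, pooled, and extracted in PBS with 0.5% NP-40 at 4°C, and was quantified by TMTpro 16plex LC-MS/MS with equalised channel sums. Thermal stability against control samples, from duplicates, is reported as log2 fold change.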
# [1] = compound: C/C(=N\NC(=O)C1=CC(=CC=C1)S(=O)(=O)N2CCOCC2)/C3=C(C=CC(=C3)Cl)O
# Procedure, shortened: as §1
# [2] = compound: C1=CC(=C(C=C1Cl)C2=NC3=NC=CN=C3C(=N2)NC4=CC=NC=C4)F
# Procedure, shortened: as §1
# [3] = compound: C1=CC(=CC=C1C2=NC3=C(N2)C=C(C=C3)C(=O)N)OC4=CC=C(C=C4)Cl
# Procedure, shortened: as §1
# [4] = compound: C1=CC2=C(C=CC(=C2)/C=C\3/C(=O)NC(=NCC4=CC=CS4)S3)N=C1
# Procedure, shortened: as §1
# [5] = compound: C1=CC2=NC=CN=C2C=C1/C=C/3\C(=O)NC(=O)S3
# Procedure, shortened: as §1
# [6] = compound: C1=CC=C(C=C1)C2=NC(=C(N2)C3=CC=NC=C3)C4=CC(=C(C=C4)Cl)O
# Procedure, shortened: as §1
# [7] = compound: C1=CC=C2C(=C1)C3=NNC4=CC=CC(=C43)C2=O
# Procedure, shortened: as §1
# [8] = compound: C1CCN(C1)C(=O)NC2=CC=CC(=C2)NC3=NC=C(C(=N3)NCCC4=CN=CN4)Br
# Procedure, shortened: as §1
# [9] = compound: C1CN(CCC1(CC2=CC=C(C=C2)Cl)N)C3=NC=NC4=C3C=CN4
# Procedure, shortened: as §1
# IRAK-1-4 Inhibitor I = compound: C1COCCN1CCN2C3=CC=CC=C3N=C2NC(=O)C4=CC(=CC=C4)[N+](=O)[O-] [IRAK-1-4 Inhibitor I]
# Procedure, shortened: as §1
# ibrutinib = compound: C=CC(=O)N1CCC[C@@H](n2nc(-c3ccc(Oc4ccccc4)cc3)c3c(N)ncnc32)C1 [ibrutinib]
# Procedure, shortened: as §1
# [10] = compound: CC(=O)c1cnc2ccc(-c3cc(Cl)c(O)c(Cl)c3)nc2c1N[C@H]1CC[C@H](CN(C)C)CC1
# Procedure, shortened: as §1
# ralimetinib = compound: CC(C)(C)Cn1c(N)nc2ccc(-c3[nH]c(C(C)(C)C)nc3-c3ccc(F)cc3)nc21 [ralimetinib]
# Procedure, shortened: as §1
# [11] = compound: CC(C)(O)CC(=O)NCCn1ccc2ncnc(Nc3ccc(Oc4cccc(C(F)(F)F)c4)c(Cl)c3)c21
# Procedure, shortened: as §1
# [12] = compound: CC(C)C1=C2N=C(C=C(N2N=C1)NCC3=CC=CC=C3)NCCCCCCN
# Procedure, shortened: as §1
# [13] = compound: CC(C)C[C@@H](C=O)NC(=O)[C@H](CC(C)C)NC(=O)[C@H](CC(C)C)NC(=O)OCc1ccccc1
# Procedure, shortened: as §1
# pinometostat = compound: CC(C)N(C[C@H]1O[C@@H](n2cnc3c(N)ncnc32)[C@H](O)[C@@H]1O)[C@H]1C[C@@H](CCc2nc3cc(C(C)(C)C)ccc3[nH]2)C1 [pinometostat]
# Procedure, shortened: as §1
# [14] = compound: CC1=C(C2=C(C=C1)C(=O)C3=CC=CC=C3N2CCCN)C
# Procedure, shortened: as §1
# [15] = compound: CC1=C(C(CC(=O)N1)C2=CC=C(C=C2)C(F)(F)F)C(=O)NC3=C(C=C4C(=C3)C=NN4)F
# Procedure, shortened: as §1
Target,log2 fold change (erlotinib),log2 fold change [1],log2 fold change [2],log2 fold change [3],log2 fold change [4],log2 fold change [5],log2 fold change [6],log2 fold change [7],log2 fold change [8],log2 fold change [9],log2 fold change (IRAK-1-4 Inhibitor I),log2 fold change (ibrutinib),log2 fold change [10],log2 fold change (ralimetinib),log2 fold change [11],log2 fold change [12],log2 fold change [13],log2 fold change (pinometostat),log2 fold change [14],log2 fold change [15]
POLR2G (UniProt P62487),inactive: -0.041,inactive: -0.011,inactive: -0.001,inactive: 0.025,inactive: -0.078,inactive: 0.044,inactive: 0.063,inactive: 0.014,inactive: -0.033,inactive: 0.071,inactive: 0.001,inactive: 0.078,active: 0.329,inactive: -0.052,inactive: -0.011,active: 0.371,inactive: 0.012,inactive: -0.044,inactive: 0.268,
PMS2 (UniProt P54278),inactive: -0.094,inactive: -0.244,inactive: -0.101,inactive: 0.361,inactive: 0.321,,inactive: -0.081,inactive: 0.185,,,inactive: 0.018,,inactive: 0.209,inactive: 0.067,inactive: -0.228,inactive: -0.356,inactive: -0.052,inactive: -0.366,,
POLR2J (UniProt P52435),inactive: -0.048,inactive: 0.074,inactive: 0.049,inactive: 0.037,inactive: -0.047,inactive: 0.581,,inactive: 0.015,,,,inactive: -0.26,inactive: 0.131,,inactive: -0.159,inactive: 0.098,,,,inactive: -0.112
POTEI (UniProt P0CG38),inactive: 0.023,inactive: 0.007,inactive: -0.009,inactive: 0.011,inactive: -0.037,inactive: -0.052,inactive: 0.045,inactive: 0.038,inactive: -0.003,inactive: 0.046,inactive: -0.176,inactive: 0.046,inactive: 0.052,inactive: 0.003,inactive: 0.015,inactive: 0.059,inactive: -0.025,inactive: -0.179,inactive: 0.012,
PMAIP1 (UniProt Q13794),inactive: -0.176,inactive: -0.06,inactive: 0.015,inactive: 0.017,inactive: -0.13,inactive: -0.105,inactive: -0.22,inactive: 0.067,inactive: -0.049,inactive: 0.17,,inactive: 0.114,inactive: -0.093,inactive: 0.105,inactive: 0,inactive: -0.458,inactive: 0.245,,inactive: -0.053,inactive: -0.037
PPIL4 (UniProt Q8WUA2),inactive: 0.011,inactive: 0.056,inactive: -0.049,inactive: 0.043,inactive: -0.023,inactive: 0,inactive: 0.04,inactive: -0.009,inactive: -0.06,inactive: -0.044,inactive: -0.102,inactive: 0.013,active: -0.27,inactive: 0.101,inactive: 0.04,inactive: -0.114,inactive: -0.065,inactive: 0.055,inactive: 0.066,
PML (UniProt P29590),inactive: 0.045,inactive: -0.073,inactive: 0.015,inactive: -0.022,inactive: -0.043,inactive: 0.071,inactive: 0.033,inactive: 0.007,inactive: 0.002,inactive: -0.005,inactive: 0.031,inactive: 0.006,inactive: 0.052,inactive: 0.045,inactive: 0.012,inactive: -0.025,inactive: -0.05,inactive: -0.021,inactive: -0.035,
PLG (UniProt P00747),inactive: -0.222,inactive: -0.006,,inactive: 0.127,inactive: -0.015,inactive: -0.001,,inactive: -0.104,inactive: 0.153,inactive: 0.194,inactive: -0.009,inactive: -0.003,inactive: 0.056,,,inactive: 0.121,,inactive: -0.018,inactive: -0.201,inactive: 0.111
PNPLA4 (UniProt P41247),inactive: 0.426,inactive: 0.13,,inactive: -0.176,inactive: -0.148,inactive: 0.133,inactive: -0.084,inactive: 0.059,inactive: 0.108,inactive: 0.029,inactive: -0.094,inactive: 0.012,inactive: 0.005,inactive: -0.022,,inactive: 0.115,inactive: 0.209,inactive: 0.049,inactive: -0.025,
"POLG, A0A3B3IS91",inactive: -0.087,,,inactive: 0.168,,,,,inactive: -0.107,inactive: 0.05,,,,,,inactive: -0.212,,,inactive: 0.144,
POC1A (UniProt Q8NBT0),,inactive: -0.017,,,inactive: 0.002,inactive: 0.111,,inactive: 0.032,inactive: -0.128,inactive: -0.094,inactive: -0.079,inactive: -0.06,inactive: -0.027,,,,,inactive: 0.044,inactive: -0.311,
PLPPR3 isoform 3 (UniProt Q6T4P5),,,inactive: -0.02,,,,inactive: -0.081,,,,,,,inactive: -0.001,inactive: -0.078,,inactive: 0.203,,,
PORCN (UniProt Q9H237),inactive: -0.015,,,inactive: 0.182,,,inactive: 0.405,,,,,,,inactive: 0.03,,inactive: -0.054,inactive: -0.283,,,
POLB (UniProt P06746),inactive: -0.236,,inactive: -0.186,inactive: 0.094,,,inactive: 0,,inactive: -0.118,inactive: 0.002,,,,inactive: 0.14,inactive: -0.222,inactive: 0.091,inactive: 0.143,,inactive: 0.175,
PMS2CL (UniProt Q68D20),,,inactive: 0.094,,,,inactive: -0.023,,,,,,,inactive: -0.21,inactive: -0.042,,inactive: -0.258,,,
POLE (UniProt Q07864),,,,,,inactive: -0.048,inactive: 0.051,,,,,inactive: -0.019,,inactive: 0.152,,,inactive: 0.507,,,

# Part of the list above, bar-delimited:
Target | log2 fold change (erlotinib) | log2 fold change [1] | log2 fold change [2] | log2 fold change [3] | log2 fold change [4] | log2 fold change [5] | log2 fold change [6] | log2 fold change [7] | log2 fold change [8] | log2 fold change [9] | log2 fold change (IRAK-1-4 Inhibitor I) | log2 fold change (ibrutinib) | log2 fold change [10] | log2 fold change (ralimetinib) | log2 fold change [11] | log2 fold change [12] | log2 fold change [13] | log2 fold change (pinometostat) | log2 fold change [14] | log2 fold change [15]
POC1A (UniProt Q8NBT0) |  | inactive: -0.017 |  |  | inactive: 0.002 | inactive: 0.111 |  | inactive: 0.032 | inactive: -0.128 | inactive: -0.094 | inactive: -0.079 | inactive: -0.06 | inactive: -0.027 |  |  |  |  | inactive: 0.044 | inactive: -0.311 | 
PLPPR3 isoform 3 (UniProt Q6T4P5) |  |  | inactive: -0.02 |  |  |  | inactive: -0.081 |  |  |  |  |  |  | inactive: -0.001 | inactive: -0.078 |  | inactive: 0.203 |  |  | 
PORCN (UniProt Q9H237) | inactive: -0.015 |  |  | inactive: 0.182 |  |  | inactive: 0.405 |  |  |  |  |  |  | inactive: 0.03 |  | inactive: -0.054 | inactive: -0.283 |  |  | 
POLB (UniProt P06746) | inactive: -0.236 |  | inactive: -0.186 | inactive: 0.094 |  |  | inactive: 0 |  | inactive: -0.118 | inactive: 0.002 |  |  |  | inactive: 0.14 | inactive: -0.222 | inactive: 0.091 | inactive: 0.143 |  | inactive: 0.175 | 
